{"sequences": {"note": "Chains of the proteins cited; added tags and fusions are not shown. Residues count along the entry.", "UniProt B8B5N8, 180-313": "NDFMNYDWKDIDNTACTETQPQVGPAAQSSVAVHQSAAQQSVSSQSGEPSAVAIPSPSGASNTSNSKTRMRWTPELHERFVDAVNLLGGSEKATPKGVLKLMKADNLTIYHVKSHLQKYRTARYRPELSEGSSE", "UniProt B8B5N8, 225-362": "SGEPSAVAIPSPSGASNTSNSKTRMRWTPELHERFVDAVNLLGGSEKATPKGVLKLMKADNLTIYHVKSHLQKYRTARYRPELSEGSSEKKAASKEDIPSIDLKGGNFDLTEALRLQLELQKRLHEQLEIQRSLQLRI", "UniProt B8B5N8, 225-362 K292A": "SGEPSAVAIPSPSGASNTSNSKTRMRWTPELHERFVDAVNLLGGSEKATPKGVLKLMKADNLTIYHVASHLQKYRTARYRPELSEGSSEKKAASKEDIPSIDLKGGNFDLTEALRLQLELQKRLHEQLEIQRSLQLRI", "UniProt B8B5N8, 225-362 Q296A": "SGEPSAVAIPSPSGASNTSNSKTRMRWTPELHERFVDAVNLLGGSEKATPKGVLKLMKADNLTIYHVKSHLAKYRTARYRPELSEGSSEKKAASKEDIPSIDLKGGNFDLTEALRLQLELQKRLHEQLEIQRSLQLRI", "UniProt B8B5N8, 225-362 S293A": "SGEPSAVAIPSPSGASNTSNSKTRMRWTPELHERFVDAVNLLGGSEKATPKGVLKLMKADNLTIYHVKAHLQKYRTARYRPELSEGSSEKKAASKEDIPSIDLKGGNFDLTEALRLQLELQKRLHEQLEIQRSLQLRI"}, "source": "paper PMC8948245", "about": "“Mechanistic insights into the regulation of plant phosphate homeostasis by the rice SPX2 – PHR2 complex” (Nature Communications, 2022)", "assay_in_all_cases": "EMSA", "key": {"[1]": {"target": "PHR2 MYB (EMSA) (Oryza sativa) (UniProt B8B5N8)", "conditions": "compared with PHR2 MYB-CC; EMSA: 10 nM FAM-DNA, 0.3375-0.8 uM PHR2, 25 mM Tris-HCl pH 8.0, 150 mM NaCl, 5 mM DTT, 10% glycerol, 200 ng/ml heparin, 4 C, 30 min; recombinant protein; protein details: C-terminal 8xHis (general PHR2 cloning)"}, "[2]": {"target": "PHR2 MYB-CC (Oryza sativa) (UniProt B8B5N8)", "conditions": "EMSA: 10 nM FAM-DNA, 0.3375-0.8 uM PHR2, 25 mM Tris-HCl pH 8.0, 150 mM NaCl, 5 mM DTT, 10% glycerol, 200 ng/ml heparin, 4 C, 30 min; recombinant protein; residues 225-362; protein details: C-terminal 8xHis"}, "[3]": {"target": "PHR2 MYB-CC K292A (Oryza sativa) (UniProt B8B5N8)", "conditions": "EMSA: 10 nM FAM-DNA, 0.3375-0.8 uM PHR2, 25 mM Tris-HCl pH 8.0, 150 mM NaCl, 5 mM DTT, 10% glycerol, 200 ng/ml heparin, 4 C, 30 min; recombinant protein; residues 225-362; protein details: C-terminal 8xHis"}, "[4]": {"target": "PHR2 MYB-CC Q296A (Oryza sativa) (UniProt B8B5N8)", "conditions": "EMSA: 10 nM FAM-DNA, 0.3375-0.8 uM PHR2, 25 mM Tris-HCl pH 8.0, 150 mM NaCl, 5 mM DTT, 10% glycerol, 200 ng/ml heparin, 4 C, 30 min; recombinant protein; residues 225-362; protein details: C-terminal 8xHis"}, "[5]": {"target": "PHR2 MYB-CC S293A (Oryza sativa) (UniProt B8B5N8)", "conditions": "EMSA: 10 nM FAM-DNA, 0.3375-0.8 uM PHR2, 25 mM Tris-HCl pH 8.0, 150 mM NaCl, 5 mM DTT, 10% glycerol, 200 ng/ml heparin, 4 C, 30 min; recombinant protein; residues 225-362; protein details: C-terminal 8xHis"}}, "note": "For some assays here: Weaker means in comparison with the reference protein, sequence or condition of that experiment. For some assays here: For at least one entry, the source does not settle the construct or the ends of the probe. For some assays here: At least one verdict rests on a figure or table, not on a statement of the authors.", "data": [{"sequence": "AAGCTTGAATATGCAATGGAATATGCTTAG (double strand) [FAM P1BS EMSA probe]", "values": [{"measurement": "binding result", "setting": "[1]", "result": "binds more weakly"}, {"measurement": "binding result", "setting": "[2]", "result": "binds"}, {"measurement": "binding result", "setting": "[3]", "result": "binds more weakly"}, {"measurement": "binding result", "setting": "[4]", "result": "binds more weakly"}, {"measurement": "binding result", "setting": "[5]", "result": "binds more weakly"}]}]}
